Among the data in publication PMC12097036 are binding values, retold here.

These are yes or no findings as the source states them, for the method shown. For some assays here: Binding seen in cells or lysates may run through a third protein. Some binding calls cover weakened binding; strength is not graded here. Sequences can lack the tags named with a protein.

The target of one assay is T1, Flag-RAB3B (human) (UniProt P20337).
T1 sequence: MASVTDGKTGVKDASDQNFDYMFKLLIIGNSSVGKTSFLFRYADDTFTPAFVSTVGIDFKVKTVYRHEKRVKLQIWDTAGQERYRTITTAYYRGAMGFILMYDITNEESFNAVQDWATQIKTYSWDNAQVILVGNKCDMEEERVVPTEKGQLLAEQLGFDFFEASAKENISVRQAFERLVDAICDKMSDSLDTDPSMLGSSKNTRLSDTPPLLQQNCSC
Put plainly: co-IP; CH22 cell lysates (150 mM NaCl, 0.5% NP-40, 1 mM EDTA, 10% glycerophosphate, 50 mM Tris-Cl pH 7.4); M2 beads for Flag proteins (4 °C, 120 min) or antibody with protein A/G agarose for endogenous proteins (4 °C, overnight); immunoblot; cells with or without RAB3B overexpression, siRAB3B or RAB3B knockdown.

In assay [1] the target is DUSP12 protein with a GST-tag (UniProt Q9UNI6). The experiment in a line: pull-down; GST pull-down: GST-tagged DUSP12 on GST-tag magnetic beads (4 °C, 60 min), prey added at 4 °C overnight, with MBP-RAB3B or its truncated forms; immunoblot; both purified.

In the case of “DUSP12 (from UniProt Q9UNI6 1-340) (enzyme)”, the binding entry with Flag-RAB3B (human) is “binds”.

B1: RAB3B protein with MBP-tag (protein, UniProt P20337 1-219)
chain: MASVTDGKTGVKDASDQNFDYMFKLLIIGNSSVGKTSFLFRYADDTFTPAFVSTVGIDFKVKTVYRHEKRVKLQIWDTAGQERYRTITTAYYRGAMGFILMYDITNEESFNAVQDWATQIKTYSWDNAQVILVGNKCDMEEERVVPTEKGQLLAEQLGFDFFEASAKENISVRQAFERLVDAICDKMSDSLDTDPSMLGSSKNTRLSDTPPLLQQNCSC
As for B1, in assay [1], the binding entry was “binds”.
